# Counter-ions that a name gives are not always drawn. ± gives the standard deviation of the averaged measurements. This is one part of the list. Repeats in this data set agree poorly, so a single value says little.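 Triple-negative MDA-MB-231 breast cancer cells and their brain-metastatic MDA-MB-231BRM derivative each stably expressed empty vector, full-length GLI1 or truncated tGLI1. CellTiter-Blue measured viability at 48 h relative to 1% DMSO vehicle. Compounds reducing viability 20% more in tGLI1 cells than in vector and GLI1 cells counted as tGLI1-selective.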
# Tested on: MDA-MB-231 Vector
# Assay: cell viability relative to vehicle (DMSO) control (fraction); higher = more viable cells (less growth inhibition)
# Conditions: 0.05 µM; treatment time 48 h
row,SMILES,cell viability
1,O=C(NCCO)c1cccc(-c2cc(Nc3ccc(OC(F)(F)F)cc3)ncn2)c1,1.26
2,N#CC(=C(/N)Sc1ccccc1N)/C(C#N)=C(\N)Sc1ccccc1N,1.43
3,CN(C)Cc1cccc(N/C(=C2\C(=O)Nc3cc(C(N)=O)ccc32)c2ccccc2)c1,1.08
4,C[C@@H](CN1CC(=O)NC(=O)C1)N1CC(=O)NC(=O)C1 [Dexrazoxane Hydrochloride],1.17
5,COc1ccc(-c2ccc3ncc4c(c3c2)n(-c2ccc(N3CCNCC3)c(C(F)(F)F)c2)c(=O)n4C)cn1,0.364
6,CC(C)(C)c1cnc(CSc2cnc(NC(=O)C3CCNCC3)s2)o1,0.327
7,Cc1c(F)cc(C(=O)NC2CC2)cc1-c1ccc(C(=O)NCC(C)(C)C)cn1,1.21
8,CCCC1O[C@@H]2C[C@H]3[C@@H]4CCC5=CC(=O)C=C[C@]5(C)[C@H]4[C@@H](O)C[C@]3(C)[C@]2(C(=O)CO)O1 (stereo not given in full) [Budesonide],1.07
9,C[C@@H](Oc1cc(-c2cnn(C3CCNCC3)c2)cnc1N)c1c(Cl)ccc(F)c1Cl,1.04 ± 0.43
10,O=C1NC(=O)/C(=C/c2ccc3nccc(-c4ccncc4)c3c2)S1,1.91
11,Cc1ccc2nc(NCCN)c3ncc(C)n3c2c1,1.22
12,CC(=O)[C@]1(O)Cc2c(O)c3c(c(O)c2[C@@H](O[C@H]2C[C@H](N)[C@H](O)[C@H](C)O2)C1)C(=O)c1ccccc1C3=O [Idarubicin HCl],-0.402
13,NC1(c2ccc(-c3nc4ccn5c(=O)[nH]nc5c4cc3-c3ccccc3)cc2)CCC1,0.941
14,O=C1NC(=O)/C(=C/c2ccc(-c3ccc(F)cc3O)o2)S1,1.24
15,CN(C)CCOc1ccc(-c2nc(-c3ccncc3)c(-c3ccc4c(c3)CC/C4=N\O)[nH]2)cc1,1.68
16,O=C1NC(=O)/C(=C/c2cccc(C(F)(F)F)c2)S1,1.38
17,C=CC(=O)Nc1ccc2ncnc(Nc3cccc(Br)c3)c2c1,1.36
18,"COc1cc(F)c(F)c(Nc2ccc(I)cc2F)c1NS(=O)(=O)C1(C[C@H](O)CO)CC1 [Refametinib (RDEA119, Bay 86-9766)]",1.42
19,Cc1cc(CN2CCN(c3c(Br)cnc4nc(-c5ccc(N6CCN(C)CC6)cc5)[nH]c34)CC2)no1,1.19
20,Cc1cc(F)c(Nc2ncnc3cc(OCc4ccccc4)ccc23)cc1O,0.994
21,CN1CCC(CNc2ccc3ncc(-c4cccc(OC(F)(F)F)c4)n3n2)CC1 [SGI-1776 free base],1.72
22,COc1cc(OC)c(/C=C/S(=O)(=O)Cc2ccc(OC)c(NCC(=O)O)c2)c(OC)c1,1.97
23,COc1ncc(-c2ccc3nccc(-c4ccnnc4)c3c2)cc1NS(=O)(=O)c1ccc(F)cc1F,0.612
24,S=C(NCc1ccc2c(c1)OCO2)N1CCN(c2ncnc3c2oc2ccccc23)CC1 [Amuvatinib (MP-470)],0.862
25,OCCn1cc(-c2cnc3nnn(Cc4ccc5ncccc5c4)c3n2)cn1,1.04
26,Cc1c(NC(=O)c2ccc(C(C)(C)C)cc2)cccc1-c1cn(C)c(=O)c(Nc2ccc(C(=O)N3CCOCC3)cc2)n1,1.36

# Same assay, conditions: 0.5 µM; treatment time 48 h
row,SMILES,cell viability
1,C[C@H]1[C@H](C)CC[C@]2(C(=O)O)CC[C@]3(C)C(=CC[C@@H]4[C@@]5(C)C[C@@H](O)[C@H](O)[C@@](C)(CO)[C@@H]5CC[C@]43C)[C@H]12 [Asiatic Acid],1.29
2,O=C1NC(=O)C(c2ccccc2[N+](=O)[O-])=C1Nc1ccc(O)c(Cl)c1,1.21
3,Cc1c(Cn2c(C)nc3c(C(=O)O)cc(N4CCOCC4)cc32)cccc1C(F)(F)F,0.638
4,Cc1ccc(NC(=O)c2ccc(CN3CCN(C)CC3)cc2)cc1Nc1nccc(-c2cccnc2)n1 [Imatinib (STI571)],1.58
5,CCC(=O)NCC[C@@H]1CCc2ccc3c(c21)CCO3 [Ramelteon (TAK-375)],0.956
6,NC(=O)Nc1cc(-c2cccc(F)c2)sc1C(=O)N[C@H]1CCCNC1,0.223
7,COc1cc2ncnc(Oc3ccc(CC(=O)Nc4cnn(C(C)C)c4)cc3)c2cc1OC,1.49
8,CC(C)(C)NS(=O)(=O)c1cncc(-c2cc(F)c3nc(N)nn3c2)c1,1.2
9,O=C(Nc1cc(C(F)(F)F)cc(C(F)(F)F)c1)c1cc(Cl)ccc1O,0.715
10,CN1CCC(COc2cnc(-c3cccc(Cn4nc(-c5cccc(C#N)c5)ccc4=O)c3)nc2)CC1,1.53
11,CC(C)CC(=O)Nc1n[nH]c2c1CN(C(=O)C1CCN(C)CC1)C2(C)C,0.657
12,COc1cc2ncc(-c3ccccc3)nc2cc1OC [Tyrphostin AG 1296],0.668
13,C1=N/C2=N/c3ccc(OCCN4CCCC4)c(c3)COC/C=C/COCc3cccc(c3)C(=C1)N2 [Pacritinib (SB1518)],0.124
14,O=C(NCCO)c1cccc(-c2cc(Nc3ccc(OC(F)(F)F)cc3)ncn2)c1,1.39
15,N#CC(=C(/N)Sc1ccccc1N)/C(C#N)=C(\N)Sc1ccccc1N,1.01
16,CN(C)Cc1cccc(N/C(=C2\C(=O)Nc3cc(C(N)=O)ccc32)c2ccccc2)c1,1.39
17,C[C@@H](CN1CC(=O)NC(=O)C1)N1CC(=O)NC(=O)C1 [Dexrazoxane Hydrochloride],1.1
18,COc1ccc(-c2ccc3ncc4c(c3c2)n(-c2ccc(N3CCNCC3)c(C(F)(F)F)c2)c(=O)n4C)cn1,0.29
19,CC(C)(C)c1cnc(CSc2cnc(NC(=O)C3CCNCC3)s2)o1,0.254
20,Cc1c(F)cc(C(=O)NC2CC2)cc1-c1ccc(C(=O)NCC(C)(C)C)cn1,1.44

row,SMILES,cell viability
1,CCCC1O[C@@H]2C[C@H]3[C@@H]4CCC5=CC(=O)C=C[C@]5(C)[C@H]4[C@@H](O)C[C@]3(C)[C@]2(C(=O)CO)O1 (stereo not given in full) [Budesonide],1.08
2,C[C@@H](Oc1cc(-c2cnn(C3CCNCC3)c2)cnc1N)c1c(Cl)ccc(F)c1Cl,1.14 ± 0.029
3,O=C1NC(=O)/C(=C/c2ccc3nccc(-c4ccncc4)c3c2)S1,0.908
4,Cc1ccc2nc(NCCN)c3ncc(C)n3c2c1,1.11
5,CC(=O)[C@]1(O)Cc2c(O)c3c(c(O)c2[C@@H](O[C@H]2C[C@H](N)[C@H](O)[C@H](C)O2)C1)C(=O)c1ccccc1C3=O [Idarubicin HCl],-0.446
6,NC1(c2ccc(-c3nc4ccn5c(=O)[nH]nc5c4cc3-c3ccccc3)cc2)CCC1,1.03
7,O=C1NC(=O)/C(=C/c2ccc(-c3ccc(F)cc3O)o2)S1,1.36
8,CN(C)CCOc1ccc(-c2nc(-c3ccncc3)c(-c3ccc4c(c3)CC/C4=N\O)[nH]2)cc1,0.576
9,O=C1NC(=O)/C(=C/c2cccc(C(F)(F)F)c2)S1,1.13
10,C=CC(=O)Nc1ccc2ncnc(Nc3cccc(Br)c3)c2c1,1.37
11,"COc1cc(F)c(F)c(Nc2ccc(I)cc2F)c1NS(=O)(=O)C1(C[C@H](O)CO)CC1 [Refametinib (RDEA119, Bay 86-9766)]",0.831
12,Cc1cc(CN2CCN(c3c(Br)cnc4nc(-c5ccc(N6CCN(C)CC6)cc5)[nH]c34)CC2)no1,0.938
13,Cc1cc(F)c(Nc2ncnc3cc(OCc4ccccc4)ccc23)cc1O,1.12
14,CN1CCC(CNc2ccc3ncc(-c4cccc(OC(F)(F)F)c4)n3n2)CC1 [SGI-1776 free base],1.15
15,COc1cc(OC)c(/C=C/S(=O)(=O)Cc2ccc(OC)c(NCC(=O)O)c2)c(OC)c1,0.948
16,COc1ncc(-c2ccc3nccc(-c4ccnnc4)c3c2)cc1NS(=O)(=O)c1ccc(F)cc1F,0.475
17,S=C(NCc1ccc2c(c1)OCO2)N1CCN(c2ncnc3c2oc2ccccc23)CC1 [Amuvatinib (MP-470)],0.612
18,OCCn1cc(-c2cnc3nnn(Cc4ccc5ncccc5c4)c3n2)cn1,1.12
19,Cc1c(NC(=O)c2ccc(C(C)(C)C)cc2)cccc1-c1cn(C)c(=O)c(Nc2ccc(C(=O)N3CCOCC3)cc2)n1,1.47
